Measured values: PubChem BioAssay AID540276 (National Center for Advancing Translational Sciences (NCATS), 2011)
Where “and” joins values, the source holds several entries; their conditions need not be identical. Identical values can stand only once. Screen size: about 300,000 compounds; about 5,400 (1.8%) were called active. Inconclusive means that the source gave no clear call. Such entries were picked first, then a sample of the others. The call rests on the fitted dose curve; tested in HEK293 cells. Potencies of inconclusive entries are doubtful fits and often do not repeat.

Assay: qHTS for inhibitors of binding or entry into cells for Marburg Virus
Settings: Marburg virus pseudotyped entry inhibition, cell reporter; activity change, negative = inhibition: at 37.8 µM (top of the series) unless noted
On the % scale 0 is the no-effect control and ±100 the full control effect; potency means the concentration at half of the fitted maximal effect.

With `CC1CCN(CCOc2cc(Cl)ccc2Cl)CC1` as the compound, how does the Potency read?
The Potency was inconclusive: 11.6 µM [inhibitor, partial curve, poor fit].

Which Potency does the source give for `Clc1ccc(SCc2cn3ccsc3n2)cc1` here?
The Potency was inconclusive: 4.47 µM [activator, full curve, poor fit].

With `Cc1cc(C)nc(SCc2nnc(SCC(=O)N3CCOCC3)o2)n1` as the compound, how does the Potency read?
Its Potency is inconclusive: 6.51 µM [inhibitor, single point].

Which Potency does the source give for `COc1ccc(/C=N/NC(=O)c2cc3c(OC)ccc(OC)c3[nH]2)cc1O` here?
Its Potency is inconclusive: 8.91 µM [inhibitor, partial curve].

With `CCC1(c2ccccc2)NC(=O)N(CC(=O)Nc2ccccc2N2CCCC2)C1=O` (stereo not given) as the compound, how does the Potency read?
Its Potency is inconclusive: 3.55 µM [inhibitor, full curve, poor fit].

Which Potency does the source give for `CSc1ccc(C2C(C#N)=C(N)Oc3c2ccc(=O)c2c(C)oc(C)c32)cc1` (stereo not given) here?
Its Potency is inconclusive: 3.98 µM [inhibitor, partial curve, poor fit].

With `Cc1nn(CC(O)c2ccccc2)c(C)c1Br` (stereo not given) as the compound, how does the “activity change, negative = inhibition” value read?
The value was inactive: 2.67%.

With `Cc1cc(C(=O)CCl)c(C)n1CCc1ccccc1` as the compound, how does the Potency read?
The Potency was inconclusive: 15.8 µM [inhibitor, single point].

With `C/C(N)=C(/C#N)C(=O)CSc1n[nH]c(-c2ccccc2Br)n1` as the compound, how does the Potency read?
Its Potency is “inactive and inconclusive: 7.94 µM [activator, full curve, poor fit]”.

With `N[C@@H](Cc1ccc(O)c(O)c1)C(=O)O` as the compound, how does the Potency read?
Its Potency is active: 15.8 µM.

Which “activity change, negative = inhibition” value does the source give for `CC(=O)c1c(C)[nH]c(C(=O)OCC(=O)NCc2cccs2)c1C` here?
The value was inactive: -28.5%.

With `Cc1ccc(C)c2[nH]c(=O)c(CN(CCN3CCCC3)C(=O)Nc3cccc(Cl)c3)cc12` as the compound, how does the Potency read?
Its Potency is inconclusive: 15.8 µM [inhibitor, single point].

For `O=C(NC(=S)N1CCOCC1)c1cn(-c2ccccc2)nc1-c1ccc(F)cc1`, which “activity change, negative = inhibition” value is on record?
Its value is inactive: -9.52%.

With `O=C(Nc1cccc(C(=O)N2CCOCC2)c1)C1CCCCC1` as the compound, how does the Potency read?
The Potency was inconclusive: 0.0791 µM [inhibitor, full curve, poor fit].

Which Potency does the source give for `CCc1cccc(CC)c1NC(=O)COn1nnc2ccc(C(F)(F)F)cc21` here?
Its Potency is inconclusive: 35.5 µM [activator, single point].

For `CCCCCCC(=O)N(O)C1CC(=O)N(c2ccc(C)cc2)C1=O` (stereo not given), which Potency is on record?
The Potency was inconclusive: 0.0291 µM [inhibitor, full curve, poor fit].

With `COCCCNC(=S)N1CCN(S(=O)(=O)c2ccc(OC)cc2)CC1` as the compound, how does the Potency read?
The Potency was inconclusive: 31.6 µM [inhibitor, single point].

Which Potency does the source give for `CCN(C(=O)c1ccco1)c1nnc(-c2ccc(OC)cc2)s1` here?
Its Potency is inconclusive: 11.2 µM [inhibitor, partial curve, poor fit].

For `C/C(=N\N=C1\NC(=O)CC(C(=O)O)S1)c1ccc(F)cc1` (stereo not given), which “activity change, negative = inhibition” value is on record?
Its value is inactive: -10%.

With `CCn1c(SCC(=O)Nc2ccc(C(C)=O)cc2)nc2ccccc21` as the compound, how does the Potency read?
The Potency was inconclusive: 10.3 µM [activator, single point].

Which Potency does the source give for `Cc1cc(N2CCC(C)CC2)nc2ccc(NC(=O)CCC(=O)N3CCN(c4ccccc4F)CC3)cc12` here?
Its Potency is inconclusive: 17.8 µM [inhibitor, single point].

With `Cc1ccc(NC(=O)c2sc(N)nc2-c2ccc([N+](=O)[O-])cc2)cc1C` as the compound, how does the Potency read?
The Potency was inconclusive: 35.5 µM [inhibitor, single point].

Which Potency does the source give for `Clc1ccc(Nc2nc(-c3ccncc3)cs2)cc1` here?
The Potency was active: 7.94 µM.

For `CC1CCN(CCCNC(=O)CN2CCN(Cc3ccc(Cl)cc3)C2=O)CC1`, which “activity change, negative = inhibition” value is on record?
The value was inactive: -20.2%.

Which “activity change, negative = inhibition” value does the source give for `CC(=O)NC(Cc1ccccc1C)C(=O)NC1CCN(C(=O)NCc2ccccc2)CC1` (stereo not given) here?
The value was inactive: -11.2% [at 46.1 µM].

Which Potency does the source give for `Cc1cc(SCC(=O)Nc2ncc(Cl)cc2Cl)nc2ccccc12` here?
The Potency was inconclusive: 4.47 µM [inhibitor, partial curve, poor fit].

Which Potency does the source give for `Cn1cccc1C(=O)NC(=O)COC(=O)c1ccc(S(C)(=O)=O)c([N+](=O)[O-])c1` here?
The Potency was inconclusive: 10 µM [inhibitor, partial curve, poor fit].

Which Potency does the source give for `CC(=O)c1cccc(NC(=S)NCCc2ccc(Cl)cc2)c1` here?
Its Potency is inconclusive: 35.5 µM [inhibitor, single point].

For `COc1cccc(C(=O)OCC(=O)NCc2ccc3c(c2)OCO3)c1OC`, which “activity change, negative = inhibition” value is on record?
Its value is inactive: -5.44%.

For `COc1ccc(OC)c(NC(=O)CC2SC(=Nc3ccccc3)N(CCc3ccccn3)C2=O)c1` (stereo not given), which Potency is on record?
The Potency was inconclusive: 29.1 µM [inhibitor, single point].

With `CCN1CCN(C(=O)COc2ccc3c(c2)C(=O)CC2(CCN(C(C)=O)CC2)O3)CC1` as the compound, how does the “activity change, negative = inhibition” value read?
Its value is inactive: 27.5%.

For `O=C(Nc1ccc2oc(-c3cccnc3)nc2c1)c1cc2ccccc2o1`, which Potency is on record?
Its Potency is inconclusive: 1.26 µM [inhibitor, full curve, poor fit].

Which Potency does the source give for `O=C(N/N=C/c1cccs1)c1cccc2cc[nH]c12` here?
Its Potency is inconclusive: 7.3 µM [activator, partial curve].

Which Potency does the source give for `Cc1ccc2c(c1)/C(=C/c1ccccc1)C(=O)N2` here?
Its Potency is inconclusive: 20 µM [inhibitor, single point].

For `O=C(NCCCN1CCOCC1)c1cc(-c2ccc(F)cc2)on1`, which “activity change, negative = inhibition” value is on record?
Its value is inactive: -5.96%.

Which Potency does the source give for `CCSc1nnc(NC(=O)c2cccnc2)s1` here?
Its Potency is inconclusive: 23.1 µM [activator, single point].

With `Clc1ccc(CN2CCCCCC2)cc1Cl` as the compound, how does the “activity change, negative = inhibition” value read?
Its value is inactive: 1.88%.

With `COc1cccc(C(=O)N(Cc2ccccc2)Cc2cc3cc4c(cc3[nH]c2=O)OCCO4)c1` as the compound, how does the Potency read?
Its Potency is inconclusive: 29.1 µM [inhibitor, single point].

With `COC(=O)c1scc(C#N)c1N/N=C(\C#N)S(=O)(=O)c1ccc(Cl)cc1` as the compound, how does the Potency read?
The Potency was inconclusive: 8.91 µM [inhibitor, partial curve, poor fit].

Which Potency does the source give for `O=C(Nc1ccc(Br)cc1)c1ccc(N2C(=O)C3CC=CCC3C2=O)cc1` (stereo not given) here?
Its Potency is inconclusive: 0.0891 µM [inhibitor, full curve, poor fit].

Which Potency does the source give for `O=C(NCc1ccccc1Cl)c1ccc2c(c1)N(Cc1ccccc1)CCS2` here?
The Potency was inconclusive: 25.1 µM [inhibitor, single point].

Which “activity change, negative = inhibition” value does the source give for `O=C(CSc1nc2ccccc2n1Cc1cccc(F)c1)N1CCN(c2ccc(F)cc2)CC1` here?
The value was inactive: 3.09% [at 46.1 µM].

Which Potency does the source give for `CCS(=O)(=O)N1CCC(C(=O)N2CCC3(CC2)OCCO3)CC1` here?
Its Potency is inconclusive: 0.0326 µM [inhibitor, full curve, poor fit].

Which “activity change, negative = inhibition” value does the source give for `COc1cccc(CNC(=O)C2CCC(CNc3nc(=S)[nH]c4ccccc34)CC2)c1` (stereo not given) here?
Its value is inactive: -6.83% [at 46.1 µM].

For `COc1ccc(/C=C/C(=O)c2cc3cccc(OC)c3oc2=O)cc1`, which Potency is on record?
The Potency was inconclusive: 35.5 µM [inhibitor, single point].

For `COc1ccccc1NC(=O)C(=O)Nc1ccccn1`, which Potency is on record?
The Potency was inconclusive: 0.82 µM [activator, full curve, poor fit].

With `Cc1cccc(C(=O)N2CCC(=O)N(C(COCc3ccccc3)Cc3ccccc3)CC2)c1` (stereo not given) as the compound, how does the “activity change, negative = inhibition” value read?
Its value is inactive: 1.31%.

For `Cc1ccc(NC(=O)CN2c3cccc4cccc(c34)S2(=O)=O)cc1`, which Potency is on record?
The Potency was inconclusive: 22.4 µM [inhibitor, single point].

For `O=C(Cc1ccc(N2CCNC2=O)cc1)N1CCCC(Nc2ccc(F)c(F)c2)C1` (stereo not given), which Potency is on record?
Its Potency is inconclusive: 1.41 µM [inhibitor, partial curve, poor fit].

With `Cc1ccc(S(=O)(=O)c2c(N)n(Cc3ccco3)c3nc4ccccc4nc23)cc1C` as the compound, how does the Potency read?
The Potency was inconclusive: 29.1 µM [inhibitor, single point].

With `CCOC(=O)c1cc(C#N)c(SCC(=O)c2cc(C#N)c(SC)nc2C)nc1C` as the compound, how does the Potency read?
Its Potency is inconclusive: 23.1 µM [inhibitor, single point].

Which “activity change, negative = inhibition” value does the source give for `CCC(C)NC(=O)c1cn(CC)c2ccc(S(=O)(=O)N3CCc4ccccc4C3)cc2c1=O` (stereo not given) here?
Its value is inactive: -24% [at 46.1 µM].

For `Cc1cc(C)c(S(=O)(=O)NCC(=O)O)cc1C`, which “activity change, negative = inhibition” value is on record?
The value was inactive: 13%.

For `Cc1ccc(NC(=O)/C=C/C(=O)O)c([N+](=O)[O-])c1`, which “activity change, negative = inhibition” value is on record?
Its value is inactive: -3.1%.

With `O=C(NNC(=O)c1ccccc1O)c1ccco1` as the compound, how does the Potency read?
Its Potency is inconclusive: 35.5 µM [activator, single point].

For `Brc1cc(Br)c2nc(-c3ccc(N4CCOCC4)cc3)ccc2c1`, which “activity change, negative = inhibition” value is on record?
The value was inactive: 24.2%.

With `O=C(Sc1ccc(Cl)cc1)c1ccccn1` as the compound, how does the Potency read?
The Potency was inconclusive: 17.8 µM [inhibitor, single point].

With `CCC(=O)c1ccc(N2CCN(C(=O)c3cc([N+](=O)[O-])ccc3N3CCN(C)CC3)CC2)c(F)c1` as the compound, how does the Potency read?
The Potency was inconclusive: 20.6 µM [inhibitor, single point].

For `COCCCNC(=S)N1CCC(C(=O)c2ccc3c(c2)OCCO3)CC1`, which “activity change, negative = inhibition” value is on record?
The value was inactive: -19% [at 46.1 µM].

For `O=C(CCc1nnc2ccc(NCc3ccco3)nn12)Nc1ccc(F)cc1`, which Potency is on record?
The Potency was inconclusive: 6.31 µM [activator, full curve, poor fit].

With `CC(C)(C)c1nnc(NC(=O)c2ccc3c(c2)OCO3)s1` as the compound, how does the Potency read?
The Potency was inconclusive: 35.5 µM [inhibitor, single point].

For `CCCCCCc1cc2cc(S(=O)(=O)c3ccc(F)cc3)c(=O)oc2cc1O`, which “activity change, negative = inhibition” value is on record?
Its value is inactive: 0.513%.

For `CCOC(=O)Cc1csc(NS(=O)(=O)c2ccc3ccccc3c2)n1`, which “activity change, negative = inhibition” value is on record?
The value was inactive: 1.27%.

Which Potency does the source give for `COc1ccc(-c2nnn(CC(=O)N(CC(=O)NCCC(C)C)c3ccccc3)n2)cc1OC` here?
Its Potency is “inactive”.

Which Potency does the source give for `Cc1ccc2c(c1)c(C)c(C)n2CC(O)Cn1nnc2ccccc21` (stereo not given) here?
The Potency was active: 20.6 µM.

For `COC(=O)c1cccc(OC(N)=O)c1`, which “activity change, negative = inhibition” value is on record?
Its value is inactive: -1.85%.

Which “activity change, negative = inhibition” value does the source give for `Brc1cccc2sc(N3CCCC3)nc12` here?
The value was inactive: 20.1% [at 46.1 µM].

With `COC(=O)c1cc(NC(=O)C2CC(=O)NC(=NCc3ccc(OC)cc3)S2)cc(C(=O)OC)c1` (stereo not given) as the compound, how does the Potency read?
Its Potency is inconclusive: 6.31 µM [activator, partial curve, poor fit].

Which Potency does the source give for `CCOC(=O)c1ccc(-n2ncc(C(=O)OCC)c2N)cc1` here?
The Potency was inconclusive: 5.62 µM [activator, single point].

For `Cc1ccc(NC(=S)NCc2cccn2C)cc1`, which Potency is on record?
Its Potency is inconclusive: 6.51 µM [activator, single point].
